According to the supplement of paper PMC12067093, “Discovery and optimisation of a covalent ligand for TRIM25 and its application to targeted protein ubiquitination” (Chemical Science, 2025):
The other results are listed elsewhere or left out.

Protein sequences, listed by entry. Tags and fused reporters are not part of them. Lines headed by an entry give the natural chain unless they say otherwise; changes in a name come on top.
UniProt Q8TAQ2, whole entry, looked up: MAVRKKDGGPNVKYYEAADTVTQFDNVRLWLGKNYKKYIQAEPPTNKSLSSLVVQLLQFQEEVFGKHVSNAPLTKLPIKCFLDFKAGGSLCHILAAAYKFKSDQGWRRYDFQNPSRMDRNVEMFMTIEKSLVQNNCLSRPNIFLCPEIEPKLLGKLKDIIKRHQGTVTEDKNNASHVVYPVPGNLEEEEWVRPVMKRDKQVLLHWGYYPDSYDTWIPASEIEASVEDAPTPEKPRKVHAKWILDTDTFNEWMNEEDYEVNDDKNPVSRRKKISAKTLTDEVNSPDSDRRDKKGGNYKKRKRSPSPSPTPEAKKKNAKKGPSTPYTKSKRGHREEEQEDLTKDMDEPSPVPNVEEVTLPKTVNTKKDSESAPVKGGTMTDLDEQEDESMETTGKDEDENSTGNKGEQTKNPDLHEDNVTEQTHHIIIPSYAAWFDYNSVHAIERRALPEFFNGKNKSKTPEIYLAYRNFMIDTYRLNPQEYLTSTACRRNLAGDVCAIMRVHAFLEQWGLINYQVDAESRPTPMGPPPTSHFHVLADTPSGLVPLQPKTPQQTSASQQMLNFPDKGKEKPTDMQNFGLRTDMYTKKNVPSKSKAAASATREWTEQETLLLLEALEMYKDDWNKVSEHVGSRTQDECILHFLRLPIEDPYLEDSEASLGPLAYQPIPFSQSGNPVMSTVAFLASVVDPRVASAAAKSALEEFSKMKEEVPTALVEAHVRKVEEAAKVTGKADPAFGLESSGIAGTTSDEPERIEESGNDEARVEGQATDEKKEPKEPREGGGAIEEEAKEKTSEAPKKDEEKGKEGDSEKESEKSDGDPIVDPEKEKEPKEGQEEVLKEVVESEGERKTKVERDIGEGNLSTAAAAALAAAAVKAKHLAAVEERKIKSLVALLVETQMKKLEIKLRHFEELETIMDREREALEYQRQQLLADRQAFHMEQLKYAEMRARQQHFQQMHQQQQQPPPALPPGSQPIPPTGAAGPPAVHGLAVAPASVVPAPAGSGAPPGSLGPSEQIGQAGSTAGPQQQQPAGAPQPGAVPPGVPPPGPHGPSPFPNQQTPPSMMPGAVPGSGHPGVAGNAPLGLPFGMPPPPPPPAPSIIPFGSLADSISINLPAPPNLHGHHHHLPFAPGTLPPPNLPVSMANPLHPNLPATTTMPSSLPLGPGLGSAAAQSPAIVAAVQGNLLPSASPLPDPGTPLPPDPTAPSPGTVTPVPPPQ
UniProt Q14683: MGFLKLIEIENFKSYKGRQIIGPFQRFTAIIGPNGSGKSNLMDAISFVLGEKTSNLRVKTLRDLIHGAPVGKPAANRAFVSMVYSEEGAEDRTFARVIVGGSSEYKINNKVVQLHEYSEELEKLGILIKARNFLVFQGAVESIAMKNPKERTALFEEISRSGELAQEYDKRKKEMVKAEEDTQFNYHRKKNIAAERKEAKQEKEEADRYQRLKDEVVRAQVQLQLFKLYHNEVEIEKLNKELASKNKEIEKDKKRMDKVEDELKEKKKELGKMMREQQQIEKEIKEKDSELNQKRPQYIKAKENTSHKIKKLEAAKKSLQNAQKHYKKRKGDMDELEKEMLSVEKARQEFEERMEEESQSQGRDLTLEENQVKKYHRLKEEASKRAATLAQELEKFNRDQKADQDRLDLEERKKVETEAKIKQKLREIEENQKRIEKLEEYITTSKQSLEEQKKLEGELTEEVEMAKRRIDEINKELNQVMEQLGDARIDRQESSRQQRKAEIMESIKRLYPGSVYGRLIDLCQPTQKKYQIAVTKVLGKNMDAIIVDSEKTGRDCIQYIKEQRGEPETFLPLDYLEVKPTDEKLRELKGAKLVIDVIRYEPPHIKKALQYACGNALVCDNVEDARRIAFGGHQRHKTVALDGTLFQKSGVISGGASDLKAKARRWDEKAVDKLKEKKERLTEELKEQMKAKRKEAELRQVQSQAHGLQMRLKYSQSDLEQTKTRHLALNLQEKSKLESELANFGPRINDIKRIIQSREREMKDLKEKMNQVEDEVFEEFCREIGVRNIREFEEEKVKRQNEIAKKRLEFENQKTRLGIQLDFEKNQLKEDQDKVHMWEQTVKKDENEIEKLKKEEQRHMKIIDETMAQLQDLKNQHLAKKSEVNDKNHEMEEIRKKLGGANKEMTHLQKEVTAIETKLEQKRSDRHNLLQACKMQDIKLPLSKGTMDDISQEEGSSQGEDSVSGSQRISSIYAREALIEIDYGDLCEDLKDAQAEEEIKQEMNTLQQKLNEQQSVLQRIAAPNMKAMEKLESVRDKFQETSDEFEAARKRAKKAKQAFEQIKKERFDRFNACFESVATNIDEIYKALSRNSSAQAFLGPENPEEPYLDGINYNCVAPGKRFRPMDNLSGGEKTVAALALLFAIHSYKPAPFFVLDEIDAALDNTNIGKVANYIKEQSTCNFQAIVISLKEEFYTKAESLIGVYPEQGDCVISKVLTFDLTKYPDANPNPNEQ
UniProt P51531, whole entry, looked up: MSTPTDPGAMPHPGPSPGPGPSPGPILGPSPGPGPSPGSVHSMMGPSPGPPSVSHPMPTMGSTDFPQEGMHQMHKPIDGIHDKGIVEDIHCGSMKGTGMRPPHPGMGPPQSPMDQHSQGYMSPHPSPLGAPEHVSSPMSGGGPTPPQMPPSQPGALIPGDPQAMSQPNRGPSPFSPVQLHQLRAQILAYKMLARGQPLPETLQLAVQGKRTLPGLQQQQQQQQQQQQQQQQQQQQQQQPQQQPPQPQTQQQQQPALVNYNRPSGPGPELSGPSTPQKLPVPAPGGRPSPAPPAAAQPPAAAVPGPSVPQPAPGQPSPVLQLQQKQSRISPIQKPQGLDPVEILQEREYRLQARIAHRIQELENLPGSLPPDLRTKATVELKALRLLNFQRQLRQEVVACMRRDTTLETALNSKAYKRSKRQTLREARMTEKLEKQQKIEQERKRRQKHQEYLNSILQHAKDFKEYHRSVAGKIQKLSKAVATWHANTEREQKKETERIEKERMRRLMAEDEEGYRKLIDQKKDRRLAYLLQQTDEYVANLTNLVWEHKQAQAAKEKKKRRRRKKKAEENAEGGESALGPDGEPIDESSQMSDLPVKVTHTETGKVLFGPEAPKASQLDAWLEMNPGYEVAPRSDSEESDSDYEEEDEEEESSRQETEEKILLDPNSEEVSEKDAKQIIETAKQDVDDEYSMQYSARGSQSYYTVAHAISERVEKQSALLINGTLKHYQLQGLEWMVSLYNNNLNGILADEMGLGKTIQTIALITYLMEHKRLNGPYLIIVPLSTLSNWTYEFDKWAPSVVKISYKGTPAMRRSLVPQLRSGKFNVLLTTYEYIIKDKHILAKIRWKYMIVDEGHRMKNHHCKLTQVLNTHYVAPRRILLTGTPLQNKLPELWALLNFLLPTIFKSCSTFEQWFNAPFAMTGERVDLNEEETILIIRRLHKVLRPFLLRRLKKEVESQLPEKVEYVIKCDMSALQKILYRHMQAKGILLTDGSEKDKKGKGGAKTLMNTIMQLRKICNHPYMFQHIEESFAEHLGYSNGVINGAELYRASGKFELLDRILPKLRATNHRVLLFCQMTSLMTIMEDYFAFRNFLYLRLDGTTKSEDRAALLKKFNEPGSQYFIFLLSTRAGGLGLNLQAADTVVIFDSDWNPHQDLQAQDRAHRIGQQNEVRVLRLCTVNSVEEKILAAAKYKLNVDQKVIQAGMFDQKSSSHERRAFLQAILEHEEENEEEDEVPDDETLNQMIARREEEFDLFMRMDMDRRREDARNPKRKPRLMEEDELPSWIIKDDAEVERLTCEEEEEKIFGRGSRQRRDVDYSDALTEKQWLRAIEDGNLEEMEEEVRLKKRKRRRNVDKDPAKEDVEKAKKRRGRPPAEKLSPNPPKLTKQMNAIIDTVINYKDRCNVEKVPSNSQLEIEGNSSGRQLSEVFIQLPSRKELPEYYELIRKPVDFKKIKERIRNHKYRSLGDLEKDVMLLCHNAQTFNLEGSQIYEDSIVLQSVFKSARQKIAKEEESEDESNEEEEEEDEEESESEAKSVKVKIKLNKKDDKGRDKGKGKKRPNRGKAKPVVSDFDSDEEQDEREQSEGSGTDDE
UniProt O75643, whole entry, looked up: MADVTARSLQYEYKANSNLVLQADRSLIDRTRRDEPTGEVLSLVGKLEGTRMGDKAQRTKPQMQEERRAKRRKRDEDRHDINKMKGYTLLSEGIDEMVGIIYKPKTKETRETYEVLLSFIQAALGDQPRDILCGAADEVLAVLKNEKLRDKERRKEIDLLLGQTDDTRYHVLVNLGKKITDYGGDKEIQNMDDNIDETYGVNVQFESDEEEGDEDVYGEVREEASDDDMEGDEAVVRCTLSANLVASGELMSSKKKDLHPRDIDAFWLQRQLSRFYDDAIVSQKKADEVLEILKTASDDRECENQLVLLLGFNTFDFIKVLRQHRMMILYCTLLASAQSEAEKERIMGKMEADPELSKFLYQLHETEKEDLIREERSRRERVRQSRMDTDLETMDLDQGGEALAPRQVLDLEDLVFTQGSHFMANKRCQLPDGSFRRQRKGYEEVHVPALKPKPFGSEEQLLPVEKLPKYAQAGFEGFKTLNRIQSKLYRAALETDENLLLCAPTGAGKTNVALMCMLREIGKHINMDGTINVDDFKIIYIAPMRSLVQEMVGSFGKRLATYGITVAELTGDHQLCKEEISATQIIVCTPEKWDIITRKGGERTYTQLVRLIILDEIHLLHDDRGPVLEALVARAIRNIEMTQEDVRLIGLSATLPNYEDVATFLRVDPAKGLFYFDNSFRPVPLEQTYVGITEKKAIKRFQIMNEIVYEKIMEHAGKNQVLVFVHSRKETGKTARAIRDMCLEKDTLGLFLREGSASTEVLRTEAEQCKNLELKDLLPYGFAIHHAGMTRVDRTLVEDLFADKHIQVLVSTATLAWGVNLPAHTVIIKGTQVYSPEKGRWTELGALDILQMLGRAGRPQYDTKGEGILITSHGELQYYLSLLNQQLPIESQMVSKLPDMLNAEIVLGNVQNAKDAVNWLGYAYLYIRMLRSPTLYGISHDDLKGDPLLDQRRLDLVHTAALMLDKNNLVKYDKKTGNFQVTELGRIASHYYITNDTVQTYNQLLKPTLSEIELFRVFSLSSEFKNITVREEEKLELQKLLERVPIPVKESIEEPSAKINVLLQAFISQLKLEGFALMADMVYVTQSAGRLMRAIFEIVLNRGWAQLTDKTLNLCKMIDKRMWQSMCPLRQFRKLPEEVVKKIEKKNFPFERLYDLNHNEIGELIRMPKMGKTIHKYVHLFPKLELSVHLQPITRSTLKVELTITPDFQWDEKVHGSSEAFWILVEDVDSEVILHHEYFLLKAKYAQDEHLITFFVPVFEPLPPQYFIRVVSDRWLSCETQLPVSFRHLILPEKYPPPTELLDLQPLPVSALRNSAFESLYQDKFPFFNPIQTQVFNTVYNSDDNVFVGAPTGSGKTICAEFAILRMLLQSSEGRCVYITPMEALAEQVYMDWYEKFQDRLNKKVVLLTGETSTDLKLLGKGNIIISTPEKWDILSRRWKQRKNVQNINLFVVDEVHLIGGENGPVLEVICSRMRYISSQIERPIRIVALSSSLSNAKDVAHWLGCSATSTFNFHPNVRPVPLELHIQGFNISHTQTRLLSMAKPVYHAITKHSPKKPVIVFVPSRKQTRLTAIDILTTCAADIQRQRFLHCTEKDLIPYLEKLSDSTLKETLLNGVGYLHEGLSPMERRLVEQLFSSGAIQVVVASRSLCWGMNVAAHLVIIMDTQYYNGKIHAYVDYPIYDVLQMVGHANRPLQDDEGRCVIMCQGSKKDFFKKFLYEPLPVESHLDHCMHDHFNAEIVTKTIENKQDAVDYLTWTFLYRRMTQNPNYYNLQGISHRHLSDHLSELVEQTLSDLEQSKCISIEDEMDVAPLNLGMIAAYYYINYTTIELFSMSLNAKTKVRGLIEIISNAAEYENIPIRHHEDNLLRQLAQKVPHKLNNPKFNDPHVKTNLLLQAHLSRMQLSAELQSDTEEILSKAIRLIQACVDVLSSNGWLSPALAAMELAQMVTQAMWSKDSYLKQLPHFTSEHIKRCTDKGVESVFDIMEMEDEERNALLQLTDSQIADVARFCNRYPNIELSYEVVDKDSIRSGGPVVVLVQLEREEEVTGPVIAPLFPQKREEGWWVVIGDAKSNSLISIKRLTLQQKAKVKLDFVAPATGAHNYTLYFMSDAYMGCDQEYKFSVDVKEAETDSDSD
UniProt O14745: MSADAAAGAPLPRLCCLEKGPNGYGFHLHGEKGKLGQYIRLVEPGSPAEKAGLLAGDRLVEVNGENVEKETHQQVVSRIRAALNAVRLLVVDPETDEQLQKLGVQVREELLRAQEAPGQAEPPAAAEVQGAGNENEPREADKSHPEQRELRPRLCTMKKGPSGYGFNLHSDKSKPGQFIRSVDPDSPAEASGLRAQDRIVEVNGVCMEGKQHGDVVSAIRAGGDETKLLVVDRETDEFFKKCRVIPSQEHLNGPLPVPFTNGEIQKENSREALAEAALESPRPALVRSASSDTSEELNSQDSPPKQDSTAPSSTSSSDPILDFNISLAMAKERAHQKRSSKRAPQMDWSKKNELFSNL

Compound: Cc1cc(ccc1-c1ccccc1)C(=O)N1CCCN(CC1)C(=O)CCl [compound 10]
Experiment: probe-labelled cysteine peptide fold change vs DMSO (competition) (log2 fold change); higher = less target engagement (more negative = stronger competition)
Details: THP-1, incubation time: 4 h
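Note: competitive profiling in live THP-1 cells: cysteine peptides tagged with an iodoacetamide desthiobiotin (IA-DTB) probe, intensity after compound treatment relative to DMSO-treated cells.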

Row | Target | probe-labelled cysteine peptide fold change (10 µM) | probe-labelled cysteine peptide fold change (50 µM)
1 | SLX4_Q8IY92_318_CLDEAEK (UniProt Q8IY92) | -0.0818 | 0.0245
2 | SMARCC2_Q8TAQ2_486_LNPQEYLTSTACR (UniProt Q8TAQ2) | -0.115 | -0.00908
3 | SMG8_Q8ND04_755_QASTVEYLPGMLHSNCPK (UniProt Q8ND04) | -0.0863 | -0.362
4 | SLC31A1_O15431_189_AVVVDITEHCH (UniProt O15431) | -0.109 | -0.171
5 | SMC1A_Q14683_987_EALIEIDYGDLCEDLK (UniProt Q14683) | -0.289 | -0.166
6 | SMARCA2_P51531_1175_LCTVNSVEEK (UniProt P51531) | 0.113 | 0.118
7 | SMC6_Q96SB8_58_NFMCHSMLGPFK (UniProt Q96SB8) | -0.0959 | 0.109
8 | SMC1A_Q14683_613+619_ALQYACGNALVCDNVEDARR (UniProt Q14683) | -0.252 | -0.0812
9 | SNRNP200_O75643_133_DILCGAADEVLAVLK (UniProt O75643) | 0.0456 | -0.0684
10 | SLFN13_Q68D06_487_EQDAEGQDYCTR (UniProt Q68D06) | 0.0321 | -0.0182
11 | SMCHD1_A6NHR9_897_GPVNSCQGK (UniProt A6NHR9) | -0.117 | -0.305
12 | SNRNP200_O75643_2011_FCNRYPNIELSYEVVDK (UniProt O75643) | 0.153 | 0.0225
13 | SMAD3_P84022_332_YGWHPATVCK (UniProt P84022) | -0.0104 | -0.137
14 | SMG1_Q96Q15_2396_LSCEQVLHIMR (UniProt Q96Q15) | 0.123 | 0.266
15 | SNRNP200_O75643_1127_RMWQSMCPLR (UniProt O75643) | -0.12 | 0.284
16 | SMYD3_Q9H7B4_261+263_DQYCFECDCFR (UniProt Q9H7B4) | -0.0235 | -0.599
17 | SNRPC_P09234_6_FYCDYCDTYLTHDSPSVR (UniProt P09234) | 0.194 | -0.549
18 | SMG5_Q9UPR3_865_AQSAMSPYLVPDTQALCHHLPVIR (UniProt Q9UPR3) | 0.126 | -0.066
19 | SLC9A3R1_O14745_206_IVEVNGVCMEGK (UniProt O14745) | 0.165 | -0.0744

Given tab-delimited: part of the list above
Row	Target	probe-labelled cysteine peptide fold change (10 µM)	probe-labelled cysteine peptide fold change (50 µM)
2	SMARCC2_Q8TAQ2_486_LNPQEYLTSTACR (UniProt Q8TAQ2)	-0.115	-0.00908
5	SMC1A_Q14683_987_EALIEIDYGDLCEDLK (UniProt Q14683)	-0.289	-0.166
